Laboratory results from patent US11311485B2, “Self-assembled particles for targeted delivery of immunomodulators to treat autoimmunity and cancer” (UNIVERSITY OF MARYLAND, BALTIMORE COUNTY, priority 2018, dated 2022).
At least one structure is not confirmed: it was looked up by name or label, or the drawing left a doubt.

Experiment: Loading capacity of filomicelles (PEG PPS) with other immunosuppressives used in lupus
Format: physicochemical
Conditions: drug per mg of filomicelles, FIG. 10
Source text: Transmission electron microscopy (TEM) images of loaded and unloaded FMs show no difference in morphology or structure, as shown in FIG. 3.

In the case of `C[C@H]1C[C@@H]2[C@H]([C@@H](O)C[C@@]3(C)[C@H]2CC[C@]3(O)C(=O)CO)[C@@]2(C)C=CC(=O)C=C12` [methylprednisolone], the “loading into filomicelles (PEG-PPS)” value is reported as “about 200 ug/mg”.
